The target in this assay is matrix metalloproteinase 28 (MMP28) (human (endogenous in AsPC-1 and BxPC-3)) (UniProt Q9H239). Kind of assay: co-IP; AsPC-1 and BxPC-3 lysates (500 μg each) with anti-MMP28 or anti-ANXA2 antibody (2 μg), protein A/G agarose 4 °C 3 h, five RIPA washes; Western blot; endogenous proteins. On the technique in general: A western blot detects proteins with antibodies after separation by electrophoresis.

Protein sequences, listed by entry. Tags and fused reporters are not part of them. Lines headed by an entry give the natural chain unless they say otherwise; changes in a name come on top.
UniProt Q9H239: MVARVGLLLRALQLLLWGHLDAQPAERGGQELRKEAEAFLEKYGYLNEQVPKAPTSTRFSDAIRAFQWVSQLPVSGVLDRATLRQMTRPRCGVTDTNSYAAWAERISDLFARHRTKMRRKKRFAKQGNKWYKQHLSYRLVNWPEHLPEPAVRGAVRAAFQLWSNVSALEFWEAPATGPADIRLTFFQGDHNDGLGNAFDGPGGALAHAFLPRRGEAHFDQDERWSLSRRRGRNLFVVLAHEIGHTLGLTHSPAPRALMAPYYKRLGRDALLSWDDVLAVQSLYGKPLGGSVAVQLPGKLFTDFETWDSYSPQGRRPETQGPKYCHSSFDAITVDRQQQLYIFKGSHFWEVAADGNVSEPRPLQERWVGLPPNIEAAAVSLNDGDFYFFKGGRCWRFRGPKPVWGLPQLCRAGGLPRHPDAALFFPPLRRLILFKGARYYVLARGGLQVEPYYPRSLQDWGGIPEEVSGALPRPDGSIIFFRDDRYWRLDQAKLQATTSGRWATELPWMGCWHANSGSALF
UniProt P07355: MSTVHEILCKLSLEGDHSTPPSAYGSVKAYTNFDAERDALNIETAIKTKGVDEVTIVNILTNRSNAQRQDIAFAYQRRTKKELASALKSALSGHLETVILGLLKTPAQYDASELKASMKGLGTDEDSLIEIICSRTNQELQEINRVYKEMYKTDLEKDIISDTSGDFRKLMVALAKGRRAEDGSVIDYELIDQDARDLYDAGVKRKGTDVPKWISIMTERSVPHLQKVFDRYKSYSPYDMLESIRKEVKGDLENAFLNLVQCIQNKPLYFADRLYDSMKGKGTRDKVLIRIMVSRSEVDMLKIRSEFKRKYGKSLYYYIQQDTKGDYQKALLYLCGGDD

No constants are given. Whether binding was seen depends on the method and setting. Binding seen in cells or lysates may run through a third protein. Binding can be weak; no strength is given.

One substance from publication PMC11837641 can be followed below.

As to “annex protein A2 (ANXA2) (from UniProt P07355 1-339)”, the binding result is “binds”.
